Source: US8552002B2 (Novartis AG, priority 2004, dated 2013)
The structures given here were assigned with low confidence; some may be wrong.

Chains of the proteins cited; added tags and fusions are not shown. Lines headed by an entry give the natural chain unless they say otherwise; changes in a name come on top. Residues count along the entry.
UniProt P00519, 28-1130 E255V limits assumed: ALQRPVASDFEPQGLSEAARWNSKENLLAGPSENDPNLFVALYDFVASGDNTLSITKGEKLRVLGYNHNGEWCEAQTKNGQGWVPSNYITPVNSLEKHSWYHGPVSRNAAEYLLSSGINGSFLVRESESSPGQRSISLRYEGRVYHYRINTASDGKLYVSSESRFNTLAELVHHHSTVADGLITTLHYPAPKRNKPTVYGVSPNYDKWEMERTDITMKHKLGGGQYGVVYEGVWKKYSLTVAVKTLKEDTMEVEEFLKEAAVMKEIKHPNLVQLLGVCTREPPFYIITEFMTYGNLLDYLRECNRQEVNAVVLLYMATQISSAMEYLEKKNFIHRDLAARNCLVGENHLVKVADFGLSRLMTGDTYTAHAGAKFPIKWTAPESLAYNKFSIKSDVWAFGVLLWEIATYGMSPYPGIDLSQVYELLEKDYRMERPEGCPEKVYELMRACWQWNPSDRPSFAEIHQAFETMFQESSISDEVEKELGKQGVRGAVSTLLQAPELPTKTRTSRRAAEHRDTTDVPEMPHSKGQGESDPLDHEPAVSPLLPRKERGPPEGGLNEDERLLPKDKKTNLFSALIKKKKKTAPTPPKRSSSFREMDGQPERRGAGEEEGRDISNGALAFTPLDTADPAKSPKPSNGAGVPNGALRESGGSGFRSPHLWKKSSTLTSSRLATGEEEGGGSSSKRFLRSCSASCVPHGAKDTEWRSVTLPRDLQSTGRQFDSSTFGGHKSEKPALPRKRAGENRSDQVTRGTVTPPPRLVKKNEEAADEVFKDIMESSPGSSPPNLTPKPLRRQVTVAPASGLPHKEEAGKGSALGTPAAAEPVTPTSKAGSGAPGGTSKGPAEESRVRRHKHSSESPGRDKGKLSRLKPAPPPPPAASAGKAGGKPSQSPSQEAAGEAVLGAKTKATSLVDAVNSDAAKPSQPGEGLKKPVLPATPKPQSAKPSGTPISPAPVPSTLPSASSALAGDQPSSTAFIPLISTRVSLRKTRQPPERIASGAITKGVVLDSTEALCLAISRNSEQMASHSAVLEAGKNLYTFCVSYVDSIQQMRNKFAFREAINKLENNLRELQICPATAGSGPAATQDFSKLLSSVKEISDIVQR
UniProt P00519, 28-1130 F317L limits assumed: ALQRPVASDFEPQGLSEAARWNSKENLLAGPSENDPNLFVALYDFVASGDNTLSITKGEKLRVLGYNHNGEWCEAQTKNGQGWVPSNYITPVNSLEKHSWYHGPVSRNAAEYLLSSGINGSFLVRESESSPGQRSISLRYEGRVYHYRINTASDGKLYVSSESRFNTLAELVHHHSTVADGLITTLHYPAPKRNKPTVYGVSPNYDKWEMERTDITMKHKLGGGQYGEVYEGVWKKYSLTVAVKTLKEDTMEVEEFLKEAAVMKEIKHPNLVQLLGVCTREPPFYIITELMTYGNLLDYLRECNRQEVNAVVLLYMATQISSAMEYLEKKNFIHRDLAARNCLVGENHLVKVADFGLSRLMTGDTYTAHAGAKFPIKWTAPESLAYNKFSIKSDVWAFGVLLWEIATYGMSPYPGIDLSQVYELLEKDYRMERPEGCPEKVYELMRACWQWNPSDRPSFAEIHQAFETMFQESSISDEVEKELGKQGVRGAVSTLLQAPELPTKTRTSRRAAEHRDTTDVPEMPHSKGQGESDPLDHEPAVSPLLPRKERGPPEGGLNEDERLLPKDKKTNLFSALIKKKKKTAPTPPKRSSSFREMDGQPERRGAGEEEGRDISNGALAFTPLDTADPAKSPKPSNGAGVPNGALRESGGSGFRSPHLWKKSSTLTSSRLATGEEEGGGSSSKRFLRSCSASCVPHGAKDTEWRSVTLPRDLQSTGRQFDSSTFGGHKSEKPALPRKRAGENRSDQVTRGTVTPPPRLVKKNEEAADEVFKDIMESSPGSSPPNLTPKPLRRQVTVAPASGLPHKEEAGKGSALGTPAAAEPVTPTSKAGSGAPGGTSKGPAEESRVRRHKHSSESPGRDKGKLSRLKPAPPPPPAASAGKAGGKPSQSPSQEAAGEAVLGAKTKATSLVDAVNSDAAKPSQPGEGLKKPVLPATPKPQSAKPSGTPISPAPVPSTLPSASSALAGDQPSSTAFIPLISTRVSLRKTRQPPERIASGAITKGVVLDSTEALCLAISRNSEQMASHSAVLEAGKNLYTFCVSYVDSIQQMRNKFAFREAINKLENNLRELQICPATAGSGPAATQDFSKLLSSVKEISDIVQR
UniProt P00519, 28-1130 G250E limits assumed: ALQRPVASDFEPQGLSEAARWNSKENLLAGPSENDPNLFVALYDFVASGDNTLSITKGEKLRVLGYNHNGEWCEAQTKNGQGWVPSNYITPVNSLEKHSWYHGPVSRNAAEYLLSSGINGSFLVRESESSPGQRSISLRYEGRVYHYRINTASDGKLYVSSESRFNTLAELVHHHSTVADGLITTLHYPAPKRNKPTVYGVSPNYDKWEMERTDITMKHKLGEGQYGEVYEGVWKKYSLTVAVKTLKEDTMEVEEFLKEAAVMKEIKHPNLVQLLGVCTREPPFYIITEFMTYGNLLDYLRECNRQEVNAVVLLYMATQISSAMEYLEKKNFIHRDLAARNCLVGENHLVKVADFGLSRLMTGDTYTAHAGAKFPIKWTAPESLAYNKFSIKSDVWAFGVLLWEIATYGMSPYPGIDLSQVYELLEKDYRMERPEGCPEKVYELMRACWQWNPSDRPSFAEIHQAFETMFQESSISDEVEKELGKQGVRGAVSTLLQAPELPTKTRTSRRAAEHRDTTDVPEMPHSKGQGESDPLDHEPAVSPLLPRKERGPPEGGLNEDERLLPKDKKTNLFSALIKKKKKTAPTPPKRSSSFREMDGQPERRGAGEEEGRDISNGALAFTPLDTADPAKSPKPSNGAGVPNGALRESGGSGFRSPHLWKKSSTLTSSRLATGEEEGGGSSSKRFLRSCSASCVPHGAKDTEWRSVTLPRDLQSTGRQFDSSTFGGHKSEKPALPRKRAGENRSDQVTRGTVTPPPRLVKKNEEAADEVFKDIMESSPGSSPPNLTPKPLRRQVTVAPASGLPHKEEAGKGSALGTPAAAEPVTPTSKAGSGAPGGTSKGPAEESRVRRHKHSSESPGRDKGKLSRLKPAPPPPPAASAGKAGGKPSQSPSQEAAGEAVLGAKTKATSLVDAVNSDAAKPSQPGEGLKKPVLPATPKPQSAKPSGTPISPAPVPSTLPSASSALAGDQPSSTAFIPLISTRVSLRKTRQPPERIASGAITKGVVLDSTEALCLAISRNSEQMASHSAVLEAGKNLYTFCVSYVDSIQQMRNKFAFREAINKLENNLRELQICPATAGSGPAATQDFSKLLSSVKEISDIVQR
UniProt P00519, 28-1130 M351T limits assumed: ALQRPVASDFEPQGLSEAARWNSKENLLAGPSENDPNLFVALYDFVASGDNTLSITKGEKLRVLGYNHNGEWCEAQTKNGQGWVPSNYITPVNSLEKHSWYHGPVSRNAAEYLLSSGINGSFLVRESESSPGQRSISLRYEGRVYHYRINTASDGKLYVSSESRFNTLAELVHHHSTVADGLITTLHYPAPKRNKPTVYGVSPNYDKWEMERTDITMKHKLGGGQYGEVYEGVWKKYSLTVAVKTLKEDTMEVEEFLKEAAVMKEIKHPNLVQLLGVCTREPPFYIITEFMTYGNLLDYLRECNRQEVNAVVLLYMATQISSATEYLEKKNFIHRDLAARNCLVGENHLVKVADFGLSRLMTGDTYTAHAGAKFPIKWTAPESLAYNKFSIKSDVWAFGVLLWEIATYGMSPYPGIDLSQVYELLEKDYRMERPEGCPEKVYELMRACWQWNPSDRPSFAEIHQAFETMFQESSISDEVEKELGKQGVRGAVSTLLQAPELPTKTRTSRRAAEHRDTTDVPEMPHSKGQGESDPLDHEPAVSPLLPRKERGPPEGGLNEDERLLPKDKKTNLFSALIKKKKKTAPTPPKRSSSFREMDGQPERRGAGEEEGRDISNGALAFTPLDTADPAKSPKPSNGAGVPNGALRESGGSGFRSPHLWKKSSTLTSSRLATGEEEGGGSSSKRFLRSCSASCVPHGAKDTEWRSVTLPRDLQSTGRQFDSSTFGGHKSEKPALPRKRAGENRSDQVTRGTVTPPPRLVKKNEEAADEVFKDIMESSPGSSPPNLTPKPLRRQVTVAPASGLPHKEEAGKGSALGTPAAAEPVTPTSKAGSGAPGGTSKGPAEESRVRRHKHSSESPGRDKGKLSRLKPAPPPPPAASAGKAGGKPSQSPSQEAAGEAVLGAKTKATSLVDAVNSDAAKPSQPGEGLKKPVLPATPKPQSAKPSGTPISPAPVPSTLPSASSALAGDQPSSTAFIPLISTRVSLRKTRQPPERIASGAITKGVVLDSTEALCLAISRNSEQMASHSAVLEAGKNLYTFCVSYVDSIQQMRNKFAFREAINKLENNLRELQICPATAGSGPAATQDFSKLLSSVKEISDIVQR
UniProt P00519, 28-1130 T315I limits assumed: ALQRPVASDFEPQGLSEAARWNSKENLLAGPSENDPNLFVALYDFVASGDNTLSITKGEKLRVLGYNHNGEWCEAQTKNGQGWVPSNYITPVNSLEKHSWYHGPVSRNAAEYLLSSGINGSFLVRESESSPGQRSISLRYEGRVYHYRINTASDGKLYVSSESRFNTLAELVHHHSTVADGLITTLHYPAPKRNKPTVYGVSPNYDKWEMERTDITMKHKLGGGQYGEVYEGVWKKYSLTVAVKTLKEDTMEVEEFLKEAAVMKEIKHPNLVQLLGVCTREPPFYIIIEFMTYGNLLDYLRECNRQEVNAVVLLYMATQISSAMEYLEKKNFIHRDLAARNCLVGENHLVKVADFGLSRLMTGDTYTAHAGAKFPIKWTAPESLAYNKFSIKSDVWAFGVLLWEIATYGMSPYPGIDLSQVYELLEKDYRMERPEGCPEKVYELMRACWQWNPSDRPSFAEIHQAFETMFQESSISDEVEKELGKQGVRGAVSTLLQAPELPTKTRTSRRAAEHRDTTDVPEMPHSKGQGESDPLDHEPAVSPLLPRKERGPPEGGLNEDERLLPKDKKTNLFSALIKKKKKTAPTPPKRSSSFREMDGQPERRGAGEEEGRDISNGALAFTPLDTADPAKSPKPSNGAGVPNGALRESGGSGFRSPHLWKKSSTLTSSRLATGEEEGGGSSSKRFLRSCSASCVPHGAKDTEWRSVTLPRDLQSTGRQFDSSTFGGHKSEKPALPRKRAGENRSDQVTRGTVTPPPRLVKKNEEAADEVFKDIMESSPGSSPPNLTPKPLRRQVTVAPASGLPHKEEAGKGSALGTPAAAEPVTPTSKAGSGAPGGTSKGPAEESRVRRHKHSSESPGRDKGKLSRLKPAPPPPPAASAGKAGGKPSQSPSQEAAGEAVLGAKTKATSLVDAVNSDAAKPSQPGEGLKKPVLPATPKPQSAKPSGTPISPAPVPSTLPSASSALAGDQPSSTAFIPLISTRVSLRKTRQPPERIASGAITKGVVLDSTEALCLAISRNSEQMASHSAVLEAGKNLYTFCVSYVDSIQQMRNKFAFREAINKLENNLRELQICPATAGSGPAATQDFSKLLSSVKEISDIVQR

Assays:
wild type Bcr-abl = wild type Bcr-abl (Homo sapiens, UniProt P00519); assay: Antiproliferative effect on cells expressing wild type Bcr-abl; conditions: read-out: IC50 for wild type Bcr-abl; cell proliferation
Protocol: 32D-p210 cells are plated into 96 well TC plates at a density of 15,000 cells per well. 50 μL of two fold serial dilutions of the test compound (Cmax is 40 μM) are added to each well (STI571 is included as a positive control). After incubating the cells for 48 hours at 37° C., 5% CO2, 15 μL of MTT (Promega) is added to each well and the cells are incubated for an additional 5 hours. The optical density at 570 nm is quantified spectrophotometrically and IC50 values, the concentration of compound required for 50% inhibition, determined from a dose response curve.
(§1) Compounds of the invention are tested for their antiproliferative effect on Ba/F3 cells expressing either wild type or the mutant forms of BCR-Abl (G250E, E255V, T315I, F317L, M351T) that confers resistance or diminished sensitivity to STI571. The antiproliferative effect of these compounds on the mutant-BCR-Abl expressing cells and on the non transformed cells were tested at 10, 3.3, 1.1 and 0.37 μM as described above (in media lacking IL3). The IC50 values of the compounds lacking toxicity on the untransformed cells were determined from the dose response curves obtained as describe above.

G250E Bcr-abl = G250E Bcr-abl (Homo sapiens, UniProt P00519, G250E); assay: Antiproliferative effect on Ba/F3 cells expressing mutant Bcr-abl G250E; conditions: read-out: IC50 for G250E Bcr-abl; Ba/F3 cell proliferation
Protocol: as §1

E255V Bcr-abl = E255V Bcr-abl (Homo sapiens, UniProt P00519, E255V); assay: Antiproliferative effect on Ba/F3 cells expressing mutant Bcr-abl E255V; conditions: read-out: IC50 for E255V Bcr-abl; Ba/F3 cell proliferation
Protocol: as §1

T315I BCR-Abl = T315I BCR-Abl (Homo sapiens, UniProt P00519, T315I); assay: Antiproliferative effect on Ba/F3 cells expressing mutant Bcr-abl T315I; conditions: read-out: IC50 for T315J Bcr-abl; Ba/F3 cell proliferation
Protocol: as §1

F317L Bcr-abl = F317L Bcr-abl (Homo sapiens, UniProt P00519, F317L); assay: Antiproliferative effect on Ba/F3 cells expressing mutant Bcr-abl F317L; conditions: read-out: IC50 for F317L Bcr-abl; Ba/F3 cell proliferation
Protocol: as §1

M351T Bcr-abl = M351T Bcr-abl (Homo sapiens, UniProt P00519, M351T); assay: Antiproliferative effect on Ba/F3 cells expressing mutant Bcr-abl M351T; conditions: read-out: IC50 for M351T Bcr-abl; Ba/F3 cell proliferation
Protocol: as §1

- IC50 (wild type Bcr-abl): < 0.5 nM
- IC50 (G250E Bcr-abl): 38 nM
- IC50 (E255V Bcr-abl): 44 nM
- IC50 (T315I BCR-Abl): 41 nM
- IC50 (F317L Bcr-abl): < 0.5 nM
- IC50 (M351T Bcr-abl): < 0.5 nM
SMILES: CC(=O)Nc1cccc(Nc2cc(N(C)C(=O)Nc3cc(NC(=O)c4cccc(C(F)(F)F)c4)ccc3C)ncn2)c1
